Assay results from the supplement of paper PMC6445147.
Values scatter widely in this assay.

B1: human tRNA-Pro; a variant is named by its letters at N, in order (parent)
chain: GGCTCGTTGGTCTAGNGGTATGATTCTCGCTTAGGGTGCGAGAGGTCCCGGGTTCNNATCCCGGACGAGCCC

Variants of: B1
Assay: tRNA 3' processing efficiency (processed reads / all reads, maximum-likelihood estimate) (fraction); higher = more efficient 3' processing
Settings: HEK293T; construct: no Pol-II promoter ((-)CMV library)

| Variant | tRNA 3' processing efficiency |
| --- | --- |
| CGT G18T | 0.13 |
| GTA G2C C3T C5T T8G G15T | 0.33 |
| GTA T11C | 0.5 |
| GTG G15C A58G | 0.25 |
| GTA T8C G15T T59A | 0.2 |
| GGT A14G T19G | 0.25 |
| GTA A14G G15T A20T T53A T59C | 0.73 |
| GTC G15A A58T | 0.17 |
| TTA T19G G38A | 0.4 |
| GGG A14T G17C | 0.25 |
| GTA A14G G17T A20T T59C | 0.4 |
| GGG G9A A20T | 0.29 |
| CTA G15T A20G | 0.17 |
| GGG G15A T19G T54A | 0.44 |
| ATA T8G A58G | 0.44 |
| GGT A20T T53A | 0.64 |
| GTA A14G G15A A20G | 0.25 |
| GGG T8G G15C A20T | 0.4 |
| GTA G18C T19C T53A | 0.44 |
| GTG A58T T59G | 0.57 |
| GTA T8A T19A A58G | 0.11 |
| TTA G17T A58C | 0.4 |
| GGG T8A A14G G18C T19A | 0.25 |
| GTA G15A G17C A20T A58T | 0.14 |

| Variant | tRNA 3' processing efficiency |
| --- | --- |
| CTA T19C T53A | 0.57 |
| TTA A14T G17T A58T | 0.4 |
| GTA G9A A14T T19C | 0.5 |
| AGT T8C A58G | 0.25 |
| CTA A14C G15C A58G | 0.25 |
| GGT G9A A14T A20T | 0.5 |
| TTA A14C A58G T59G | 0.33 |
| TTA C70T | 0.4 |
| GTA T8C G9T A58T | 0.76 |
| TTA A14G A20G T59C | 0.62 |
| TTA A14T T19G A58C | 0.25 |
| CTA G15T T19G T53G | 0.25 |
| CTA T53A T59C | 0.5 |
| ATC A14T | 0.46 |
| GTG A14G T19A | 0.25 |
| TGG G9A T19G A58T | 0.25 |
| GTT A14C G15C T59A | 0.33 |
| GTA G6A T59C | 0.4 |
| GTA A14C G15C T19A T59G | 0.25 |
| GTA G9A G15A G18T A58C | 0.4 |
| CTA A14T A20T A58T | 0.33 |
| GTA G9A A20T T59C | 0.33 |
| CTG G18C T59G | 0.25 |
| GTA T19A A20T G51A A58C | 0.67 |

| Variant | tRNA 3' processing efficiency |
| --- | --- |
| GGG A14G T19G | 0.2 |
| GGG T8C A14T A20T | 0.4 |
| GTG A14C G15C | 0.43 |
| GTA G15C T19A A58T | 0.22 |
| CTA T19C A58T T59C | 0.56 |
| TGG G18A T19C | 0.14 |
| GTG G17T T19A A20T | 0.2 |
| GGT A14C A20T | 0.43 |
| TGG G17C T59C | 0.1 |
| CGG C55A | 0.62 |
| GTA T8G G15C A20C | 0.13 |
| GTG A20C T59A | 0.17 |
| CTG T59G | 0.2 |
| TTA A14T T19A A58T | 0.25 |
| GTA G18C G51A | 0.5 |
| TGT A14C | 0.29 |
| GTA A14T A20C T59C | 0.5 |
| TGT A20T C55T | 0.38 |
| ATA T19A A58C | 0.4 |
| GTA A14G T19A A20T A23C A58T T59A | 0.18 |
| GTA G17T T19G A58G | 0.25 |
| TTA G15C T53G | 0.33 |
| TTA T19A C55G | 0.25 |
| TTA A14C G15A T53A | 0.5 |

| Variant | tRNA 3' processing efficiency |
| --- | --- |
| TTA T8C G9A T19A A58T | 0.43 |
| CTA A58G T59G | 0.52 |
| GGG A14T T19A A20T | 0.5 |
| GTC G18A T19G A58T | 0.13 |
| GTA A14G A58T T59G | 0.17 |
| TTA A14T A20G A58C | 0.57 |
| GTA T8G G18T A58G | 0.13 |
| CTC T8A A20T | 0.33 |
| ATG T54A | 0.69 |
| TTC G17A | 0.73 |
| TTA T19A A58C | 0.38 |
| ATA T19G A20T T59C | 0.2 |
| GTA T8C T19G T59A | 0.57 |
| GTA T8G G15T A58C | 0.75 |
| GGG T8G G15T | 0.44 |
| GTC G36T | 0.67 |
| TTA G9A G15T A20G T53G | 0.25 |
| TGG A58G | 0.33 |
| GTA G17T T19A A20G T59C | 0.5 |
| CTA A20T C55T | 0.25 |
| CTA T19A T59C | 0.14 |
| GTA G51A | 0.2 |
| CTA T19C T54A | 0.45 |
| CGG G15A G17A A20G T53A | 0.25 |

| Variant | tRNA 3' processing efficiency |
| --- | --- |
| CTA A20T A58G | 0.2 |
| ATA A58G T59G | 0.25 |
| ATA A58G T59C | 0.43 |
| ATA T19A A20G A58G | 0.2 |
| GTA A14T G22A | 0.2 |
| GTG T19A A58G | 0.25 |
| GTA A14T G17A G18A T59C | 0.2 |
| ATA A14G T19A A43T T59G | 0.2 |
| GGG G9A T19A A20T T53A | 0.4 |
| GTA A14C G15A G17T T19A A58C | 0.4 |
| CTA A14C A20G A58G | 0.62 |
| GTA G15T G18A A58G T59G | 0.25 |
| TGG G17T T59C | 0.17 |
| ATG A20G | 0.33 |
| GTA G1T G2T C3T A20C | 0.2 |
| ATC G15A T19G | 0.33 |
| GGG A20T T53G | 0.4 |
| ATA G9A C55T | 0.62 |
| GTA T8C G15C T19G | 0.4 |
| CGT G9A | 0.13 |
| TTA A14G A20T | 0.11 |
| ATG A58G | 0.06 |
| ATA G15C T19G | 0.25 |
| GTA T8A G15A G17C A20G T59C | 0.5 |

Laid out differently: entries from further up.
GTA A14T G17A G18A T59C
  tRNA 3' processing efficiency: 0.2
ATG A20G
  tRNA 3' processing efficiency: 0.33
ATA G9A C55T
  tRNA 3' processing efficiency: 0.62

Next part:

| Variant | tRNA 3' processing efficiency |
| --- | --- |
| GTG T19A T59G | 0.25 |
| TTA T19G A20G | 0.45 |
| GTA G9A G15A A58G | 0.21 |
| TTA T19C A58T T59G | 0.2 |
| GGT T19A T59C | 0.2 |
| ATA A14T A20T | 0.29 |
| CGG G9A T54A | 0.14 |
| ATA T8C T59G | 0.2 |
| GTA G17C G18C A58C | 0.25 |
| GTA A14T G45T | 0.4 |
| GTA T8C G9A A58C | 0.17 |
| ATA A20T A58C | 0.25 |
| TGG A14G | 0.33 |
| TTA G9T A58G | 0.56 |
| TTA G9T A58C | 0.5 |
| TTA T13A G15T | 0.57 |
| ATA G15T G17T T53C | 0.43 |
| GTA T8C A20T | 0.25 |
| TTC A14T G17C T19C | 0.17 |
| GTA G17A G18C T53A | 0.25 |
| CTA G15C T59A | 0.42 |
| TTA A14T T19G | 0.19 |
| GTA T8G T59C | 0.5 |
| GGG G15C T19G | 0.25 |

| Variant | tRNA 3' processing efficiency |
| --- | --- |
| CGG G17C | 0.5 |
| GTC T8C A14C A20T | 0.2 |
| ATA T53C A58T | 0.33 |
| AGG T19C | 0.33 |
| TTA G15A A58C | 0.25 |
| TGT G17T T59G | 0.25 |
| TTA A20C A58G | 0.2 |
| GTA A14T T19G A58C | 0.33 |
| GTA T8G G15A A58G T59G | 0.25 |
| CTC G17T | 0.91 |
| GGG G15C A20C | 0.17 |
| CTA T8C G15A T19A | 0.25 |
| CTA G9A A14T A58T | 0.25 |
| CTA T19A C55A A58G | 0.5 |
| TTC T59A | 0.55 |
| TTC T59G | 0.25 |
| CGT A14G G17T T59A | 0.15 |
| GTA A14G T19G T59G | 0.4 |
| GTA G15C G17C T19G | 0.43 |
| GTA A14T T19G A20T | 0.4 |
| TTA G17A A20G T53A | 0.4 |
| TTC T8A T19C | 0.25 |
| GTC T19A A20T A58C | 0.25 |

An excerpt of these results, as tab-separated lines:
Variant	tRNA 3' processing efficiency
GTA G9A G15A G18T A58C	0.4
GTG T19A A58G	0.25
ATA A14T A20T	0.29
